In PubChem BioAssay AID504467 (National Center for Advancing Translational Sciences (NCATS), 2011):
The campaign covered roughly 330,000 compounds. About 7,700 (2.3%) were called active. The inconclusive results got no clear call from the source; some entries with a clear call stand among them for comparison. The call rests on the fitted dose curve; in most records, active means well fitted inhibition curve with a large enough effect; inconclusive means small, poorly fitted or top-dose-only effect, or effect the other way; inactive means flat fitted curve, though single readings scatter. Where the call is inconclusive, the potency comes from a doubtful curve fit.

test: qHTS screen for small molecules that inhibit ELG1-dependent DNA repair in human embryonic kidney (HEK293T) cells expressing luciferase-tagged ELG1; conditions: HEK293T ELG1-luciferase reporter, luminescence, 16 h, DNA damage induced by 5-fluorouridine; series mostly up to 46.1 µM; further: nearly all actives have a fitted effect of over 55% in size
How it was run: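 In this reporter screen, reduction of luminescence relative to DMSO vehicle indicated activity. Compounds and 5-fluorouridine were added together to 2,000 cells per well, incubated for 16 hr at 37 °C, then developed with ONE-Glo.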
Potency means the concentration at half of the fitted maximal effect.

Row | SMILES | Potency
1 | COc1ccc2c(c1OC)C(=O)OC2Nc1nc(-c2ccccc2)cs1 (stereo not given) | active: 9.2 µM
2 | CC(=C1C(=O)c2ccccc2C1=O)N1CCC(C(N)=O)(N2CCCCC2)CC1 | inactive
3 | CCC(C(=O)NC1CCCC1)N(Cc1cccs1)C(=O)Cn1nnc(-c2ccc(OC)c(OC)c2)n1 (stereo not given) | active: 18.4 µM
4 | COc1ccc(CC(=O)N[C@@H]2c3cc(OC)c(OC)cc3C[C@H]2OCc2ccccc2)cc1 | inactive
5 | Cc1ccc(C(C(=O)NCc2ccccc2)N(Cc2ccco2)C(=O)c2snc(C(N)=O)c2N)o1 (stereo not given) | inconclusive: 16.4 µM [inhibitor, single point]
6 | CCCN(Cc1nnc(-c2ccccc2Cl)o1)C(=O)c1cc2ccccc2o1 | inconclusive: 16.4 µM [activator, partial curve]
7 | COC(=O)CSc1nnc(-c2ccco2)n1Cc1ccco1 | inconclusive: 18.4 µM [activator, single point]
8 | Nc1nc2sc3c(c2cc1C(=O)NCC(=O)O)CCCC3 | inactive
9 | Cn1c(N)c(C(=O)CSc2ccc3c(c2)OCCO3)c(=O)n(C)c1=O | inconclusive: 13 µM [inhibitor, partial curve]
10 | COc1ccc(N2CCN(Cc3cc(=O)oc4ccc(Cl)cc34)CC2)cc1 | inactive
11 | Cc1n[nH]c(=O)c2c(NC(=O)COC(=O)Cc3c(F)cccc3Cl)oc(C)c12 | inconclusive: 0.184 µM [inhibitor, full curve, poor fit]
12 | Cc1ccc(N2C(=O)N(CC(=O)Nc3cccc(Cl)c3)C(=O)C2C)cc1 (stereo not given) | inactive
13 | Cc1cc(C)c(S(=O)(=O)Nc2ccc(-c3cn4ccccc4n3)cc2)c(C)c1 | inconclusive: 32.6 µM [inhibitor, single point]
14 | Cc1cccc(NC(=O)CSc2nnc(NC(=O)C3CC3)s2)c1C | inactive
15 | O=C1CCCCC1C(=O)c1cn(-c2ccc(Cl)c(Cl)c2)nn1 (stereo not given) | inconclusive: 20.6 µM [activator, partial curve]
16 | C/C(CC(=O)Nc1cccc(C(F)(F)F)c1)=N\NC(=O)c1cnccn1 | inactive
17 | CC(Oc1ccccc1F)C(=O)NNC(=O)CCNC(=O)c1ccco1 (stereo not given) | inactive
18 | N#Cc1ccc(CSc2nnc(-c3ccccn3)n2-c2ccccc2)cc1 | inactive
19 | NNC(=O)c1ccc(N2CCCCCC2)c([N+](=O)[O-])c1 | inconclusive: 29.1 µM [inhibitor, single point]
20 | CCN1C(=O)[C@H]2[C@H]3CN=C(SC)N3[C@@](Cc3ccccc3)(C(=O)OC)[C@H]2C1=O | inconclusive: 32.6 µM [activator, partial curve, poor fit]

Ordered by molar mass (ascending): 3 of the compounds above.
Row | SMILES | Potency
14 | Cc1cccc(NC(=O)CSc2nnc(NC(=O)C3CC3)s2)c1C | inactive
16 | C/C(CC(=O)Nc1cccc(C(F)(F)F)c1)=N\NC(=O)c1cnccn1 | inactive
12 | Cc1ccc(N2C(=O)N(CC(=O)Nc3cccc(Cl)c3)C(=O)C2C)cc1 (stereo not given) | inactive
